# According to the supplement of paper PMC10849652:
# By UniProt entry, the sequences of proteins in these tests, tags left out. Where a name states a change or a piece, a line headed by the entry shows the natural chain unless it says otherwise.
# UniProt O96019, whole entry, looked up: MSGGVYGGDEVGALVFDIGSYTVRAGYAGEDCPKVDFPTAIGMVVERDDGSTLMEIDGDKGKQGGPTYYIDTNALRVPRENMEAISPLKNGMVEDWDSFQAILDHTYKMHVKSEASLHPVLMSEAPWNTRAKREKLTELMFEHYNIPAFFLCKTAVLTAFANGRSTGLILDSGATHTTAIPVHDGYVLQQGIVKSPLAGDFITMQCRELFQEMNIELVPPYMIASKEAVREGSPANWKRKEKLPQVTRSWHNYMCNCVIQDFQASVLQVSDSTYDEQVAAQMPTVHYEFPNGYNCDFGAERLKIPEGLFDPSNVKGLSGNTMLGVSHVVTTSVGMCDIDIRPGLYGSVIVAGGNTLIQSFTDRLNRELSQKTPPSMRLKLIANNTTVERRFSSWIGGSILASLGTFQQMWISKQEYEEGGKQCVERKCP
# UniProt Q96P47: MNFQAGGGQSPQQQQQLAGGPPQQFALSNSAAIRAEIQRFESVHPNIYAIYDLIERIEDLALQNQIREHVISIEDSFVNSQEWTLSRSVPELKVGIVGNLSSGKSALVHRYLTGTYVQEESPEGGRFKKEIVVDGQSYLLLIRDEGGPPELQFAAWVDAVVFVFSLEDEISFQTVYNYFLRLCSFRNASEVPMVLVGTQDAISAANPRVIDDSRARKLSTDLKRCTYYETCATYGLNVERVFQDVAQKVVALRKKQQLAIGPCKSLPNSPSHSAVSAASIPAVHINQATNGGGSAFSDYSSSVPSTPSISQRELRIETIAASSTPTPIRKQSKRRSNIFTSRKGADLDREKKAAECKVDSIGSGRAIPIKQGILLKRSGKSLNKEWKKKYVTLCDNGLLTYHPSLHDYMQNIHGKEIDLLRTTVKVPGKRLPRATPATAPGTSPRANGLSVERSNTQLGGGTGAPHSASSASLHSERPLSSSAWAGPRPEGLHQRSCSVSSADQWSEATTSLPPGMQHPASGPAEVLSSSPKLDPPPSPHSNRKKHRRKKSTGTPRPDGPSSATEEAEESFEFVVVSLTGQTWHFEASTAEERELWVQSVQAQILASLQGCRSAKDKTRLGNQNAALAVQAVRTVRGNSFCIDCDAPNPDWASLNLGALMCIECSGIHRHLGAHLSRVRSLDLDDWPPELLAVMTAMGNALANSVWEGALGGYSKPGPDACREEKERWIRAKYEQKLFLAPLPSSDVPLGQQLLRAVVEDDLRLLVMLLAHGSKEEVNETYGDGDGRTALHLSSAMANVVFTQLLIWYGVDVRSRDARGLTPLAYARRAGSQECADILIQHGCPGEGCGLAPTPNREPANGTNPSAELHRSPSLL
# UniProt Q9H568: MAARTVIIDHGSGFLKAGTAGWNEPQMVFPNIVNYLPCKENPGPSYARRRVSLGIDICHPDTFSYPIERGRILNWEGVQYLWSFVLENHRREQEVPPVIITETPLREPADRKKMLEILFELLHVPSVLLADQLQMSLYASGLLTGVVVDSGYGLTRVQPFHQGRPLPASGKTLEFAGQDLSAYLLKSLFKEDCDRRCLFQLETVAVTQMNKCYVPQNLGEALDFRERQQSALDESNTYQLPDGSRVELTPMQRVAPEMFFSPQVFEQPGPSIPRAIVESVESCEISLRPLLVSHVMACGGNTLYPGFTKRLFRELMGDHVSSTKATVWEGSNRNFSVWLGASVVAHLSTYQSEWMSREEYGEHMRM
# UniProt Q96BJ3: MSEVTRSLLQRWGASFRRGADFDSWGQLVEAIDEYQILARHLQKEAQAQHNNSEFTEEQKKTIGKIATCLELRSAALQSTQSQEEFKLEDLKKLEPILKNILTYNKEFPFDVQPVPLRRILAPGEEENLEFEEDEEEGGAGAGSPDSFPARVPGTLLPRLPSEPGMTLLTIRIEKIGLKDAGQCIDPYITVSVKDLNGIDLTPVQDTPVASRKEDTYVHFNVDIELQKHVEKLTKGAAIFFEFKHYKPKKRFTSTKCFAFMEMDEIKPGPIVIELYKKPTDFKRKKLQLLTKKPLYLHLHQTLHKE
# UniProt Q99943: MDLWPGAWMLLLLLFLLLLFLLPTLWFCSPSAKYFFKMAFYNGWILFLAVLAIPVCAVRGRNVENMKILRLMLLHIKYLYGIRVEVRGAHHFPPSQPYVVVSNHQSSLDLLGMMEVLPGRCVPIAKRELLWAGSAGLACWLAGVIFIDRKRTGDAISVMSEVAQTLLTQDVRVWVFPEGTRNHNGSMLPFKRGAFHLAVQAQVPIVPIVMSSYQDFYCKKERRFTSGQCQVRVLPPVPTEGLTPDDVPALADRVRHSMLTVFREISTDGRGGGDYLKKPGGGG
# UniProt P51825: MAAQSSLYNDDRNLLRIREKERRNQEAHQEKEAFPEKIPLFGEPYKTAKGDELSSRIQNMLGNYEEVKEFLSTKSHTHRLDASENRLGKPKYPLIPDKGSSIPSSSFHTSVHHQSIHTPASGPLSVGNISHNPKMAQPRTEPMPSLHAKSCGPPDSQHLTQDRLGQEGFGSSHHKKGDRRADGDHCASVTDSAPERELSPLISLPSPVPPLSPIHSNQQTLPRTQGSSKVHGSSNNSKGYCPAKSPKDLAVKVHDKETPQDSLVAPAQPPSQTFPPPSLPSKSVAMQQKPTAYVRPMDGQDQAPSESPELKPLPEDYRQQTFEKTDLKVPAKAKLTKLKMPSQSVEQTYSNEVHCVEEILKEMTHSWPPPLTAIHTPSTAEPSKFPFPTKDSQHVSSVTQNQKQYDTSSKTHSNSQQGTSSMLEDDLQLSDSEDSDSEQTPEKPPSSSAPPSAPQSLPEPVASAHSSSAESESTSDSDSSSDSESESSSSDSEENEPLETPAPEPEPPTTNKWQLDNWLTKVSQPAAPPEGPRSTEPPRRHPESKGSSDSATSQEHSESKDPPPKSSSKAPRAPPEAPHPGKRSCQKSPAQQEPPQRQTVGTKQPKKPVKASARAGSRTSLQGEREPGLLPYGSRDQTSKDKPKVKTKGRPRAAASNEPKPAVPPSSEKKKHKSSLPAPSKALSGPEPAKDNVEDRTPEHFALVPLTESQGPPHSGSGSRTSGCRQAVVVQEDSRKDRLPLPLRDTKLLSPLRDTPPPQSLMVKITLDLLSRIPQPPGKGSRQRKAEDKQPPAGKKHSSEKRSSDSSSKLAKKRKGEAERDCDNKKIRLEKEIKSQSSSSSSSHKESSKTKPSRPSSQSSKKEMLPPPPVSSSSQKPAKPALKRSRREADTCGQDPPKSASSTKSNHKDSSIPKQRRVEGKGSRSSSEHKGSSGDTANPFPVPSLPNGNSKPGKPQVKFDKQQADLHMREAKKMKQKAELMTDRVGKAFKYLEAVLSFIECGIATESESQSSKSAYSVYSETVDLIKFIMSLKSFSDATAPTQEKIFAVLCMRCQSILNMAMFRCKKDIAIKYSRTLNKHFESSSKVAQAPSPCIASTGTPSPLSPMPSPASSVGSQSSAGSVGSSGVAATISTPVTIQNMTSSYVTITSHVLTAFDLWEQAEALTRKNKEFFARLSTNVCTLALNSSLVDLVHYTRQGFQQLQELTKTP
# UniProt Q9NUB1: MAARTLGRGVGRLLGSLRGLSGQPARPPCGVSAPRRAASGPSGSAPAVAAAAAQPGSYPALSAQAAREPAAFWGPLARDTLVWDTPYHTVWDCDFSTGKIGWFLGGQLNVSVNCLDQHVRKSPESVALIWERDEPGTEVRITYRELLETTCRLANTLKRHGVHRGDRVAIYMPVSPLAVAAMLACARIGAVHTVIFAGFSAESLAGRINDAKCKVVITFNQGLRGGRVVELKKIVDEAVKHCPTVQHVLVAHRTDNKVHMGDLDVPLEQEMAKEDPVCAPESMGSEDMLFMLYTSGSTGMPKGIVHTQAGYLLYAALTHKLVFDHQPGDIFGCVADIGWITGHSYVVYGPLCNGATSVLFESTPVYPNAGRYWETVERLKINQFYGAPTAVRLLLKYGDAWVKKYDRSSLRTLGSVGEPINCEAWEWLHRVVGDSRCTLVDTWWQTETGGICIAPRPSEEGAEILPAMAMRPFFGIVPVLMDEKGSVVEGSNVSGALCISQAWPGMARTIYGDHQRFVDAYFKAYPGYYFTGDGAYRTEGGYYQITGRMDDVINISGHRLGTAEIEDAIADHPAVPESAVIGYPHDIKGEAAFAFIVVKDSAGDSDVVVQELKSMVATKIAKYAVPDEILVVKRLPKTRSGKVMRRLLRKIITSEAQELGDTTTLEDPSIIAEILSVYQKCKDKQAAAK
# UniProt Q562R1, whole entry, looked up: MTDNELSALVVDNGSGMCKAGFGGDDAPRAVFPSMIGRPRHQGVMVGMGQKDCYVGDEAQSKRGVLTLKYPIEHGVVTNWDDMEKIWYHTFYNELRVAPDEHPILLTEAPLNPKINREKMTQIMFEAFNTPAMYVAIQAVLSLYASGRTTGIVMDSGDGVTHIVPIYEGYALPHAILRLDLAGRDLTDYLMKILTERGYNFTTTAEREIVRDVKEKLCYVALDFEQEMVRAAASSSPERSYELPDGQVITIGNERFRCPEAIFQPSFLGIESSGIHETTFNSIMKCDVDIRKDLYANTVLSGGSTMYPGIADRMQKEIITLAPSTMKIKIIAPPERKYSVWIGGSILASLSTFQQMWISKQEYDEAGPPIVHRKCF
# UniProt O00170: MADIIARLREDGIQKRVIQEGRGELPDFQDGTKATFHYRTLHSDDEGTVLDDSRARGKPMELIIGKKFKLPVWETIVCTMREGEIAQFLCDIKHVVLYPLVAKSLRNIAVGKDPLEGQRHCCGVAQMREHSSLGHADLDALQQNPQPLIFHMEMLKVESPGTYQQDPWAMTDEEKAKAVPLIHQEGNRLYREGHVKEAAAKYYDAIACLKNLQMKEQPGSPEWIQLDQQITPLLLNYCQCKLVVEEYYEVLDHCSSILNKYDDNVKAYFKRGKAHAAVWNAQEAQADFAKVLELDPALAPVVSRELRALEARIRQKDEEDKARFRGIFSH
# UniProt P61163, whole entry, looked up: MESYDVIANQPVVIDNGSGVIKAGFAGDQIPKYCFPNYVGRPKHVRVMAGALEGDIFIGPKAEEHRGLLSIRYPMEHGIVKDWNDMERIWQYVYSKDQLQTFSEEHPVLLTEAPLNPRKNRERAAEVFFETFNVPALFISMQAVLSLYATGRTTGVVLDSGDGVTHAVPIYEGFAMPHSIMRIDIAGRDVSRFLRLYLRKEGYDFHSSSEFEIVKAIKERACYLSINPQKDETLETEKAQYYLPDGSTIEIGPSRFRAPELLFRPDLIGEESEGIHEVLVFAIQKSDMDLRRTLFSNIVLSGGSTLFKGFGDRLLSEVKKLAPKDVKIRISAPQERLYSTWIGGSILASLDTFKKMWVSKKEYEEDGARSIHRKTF
# UniProt P14550: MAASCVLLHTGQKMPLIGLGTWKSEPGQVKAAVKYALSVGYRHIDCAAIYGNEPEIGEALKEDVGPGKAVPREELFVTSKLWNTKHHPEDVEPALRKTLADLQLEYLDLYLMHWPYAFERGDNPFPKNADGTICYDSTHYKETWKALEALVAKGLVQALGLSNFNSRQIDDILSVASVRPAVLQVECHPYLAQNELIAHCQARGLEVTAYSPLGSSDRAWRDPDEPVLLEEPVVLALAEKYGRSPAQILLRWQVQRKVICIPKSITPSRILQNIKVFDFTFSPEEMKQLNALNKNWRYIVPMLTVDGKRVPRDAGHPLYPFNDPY
# UniProt P12814, whole entry, looked up: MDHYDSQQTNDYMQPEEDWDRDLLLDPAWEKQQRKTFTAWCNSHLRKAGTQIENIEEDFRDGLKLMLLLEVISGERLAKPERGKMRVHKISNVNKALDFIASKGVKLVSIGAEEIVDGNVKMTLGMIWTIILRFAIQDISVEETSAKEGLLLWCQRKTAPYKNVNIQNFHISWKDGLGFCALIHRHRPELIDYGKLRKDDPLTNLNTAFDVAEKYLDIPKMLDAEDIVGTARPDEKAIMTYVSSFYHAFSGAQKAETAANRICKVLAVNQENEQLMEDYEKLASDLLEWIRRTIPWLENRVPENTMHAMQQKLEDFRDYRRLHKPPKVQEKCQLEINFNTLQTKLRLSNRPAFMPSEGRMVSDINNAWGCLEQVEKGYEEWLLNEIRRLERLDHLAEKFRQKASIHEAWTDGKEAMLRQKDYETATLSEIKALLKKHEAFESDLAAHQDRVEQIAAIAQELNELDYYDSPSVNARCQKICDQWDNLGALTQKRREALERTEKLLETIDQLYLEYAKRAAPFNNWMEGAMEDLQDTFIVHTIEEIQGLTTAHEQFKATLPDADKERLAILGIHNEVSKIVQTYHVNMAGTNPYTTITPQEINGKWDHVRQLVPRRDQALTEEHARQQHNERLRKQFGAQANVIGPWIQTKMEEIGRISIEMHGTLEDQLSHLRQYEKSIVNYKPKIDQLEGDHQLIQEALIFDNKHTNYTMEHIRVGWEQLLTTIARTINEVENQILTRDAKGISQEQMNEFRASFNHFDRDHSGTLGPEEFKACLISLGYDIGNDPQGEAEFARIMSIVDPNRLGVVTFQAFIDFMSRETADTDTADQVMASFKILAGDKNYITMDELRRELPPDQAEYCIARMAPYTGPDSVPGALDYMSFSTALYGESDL
# This is one part of the list.
# What was measured:
# Test in all cases: log2 fold change, soluble protein after heating vs DMSO (PISA); higher = thermal stabilisation; K562 lysate, 10 uM; active = over 0.2 and 3.5 SD of the protein, either way, in both replicates (recomputed)
# [1] = compound: CS(=O)(=O)CCNCc1ccc(-c2ccc3ncnc(Nc4ccc(OCc5cccc(F)c5)c(Cl)c4)c3c2)o1 [lapatinib]
# Method in brief: (§1)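 Values give the log-two fold change in thermal stability against solvent controls, from duplicates. Crude K562 extract at 1 mg/mL protein, made by dounce homogenisation in PBS pH 7.4 with 1 mM MgCl2, was treated with 10 μM compound for 30 min. After 3 min heating across 48°C-58°C, aliquots were pooled, adjusted to 0.5% NP-40 at 4°C and centrifuged at 21,000xg for 90 min. The supernatant was measured by TMTpro 16plex LC-MS/MS with channel sums equalised.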
# [2] = compound: CS(=O)(=O)N1CCN(Cc2cc3nc(-c4cccc5[nH]ncc45)nc(N4CCOCC4)c3s2)CC1 [pictilisib]
# Method in brief: as §1
# [3] = compound: C[C@@H](Oc1cc(-c2cnn(C3CCNCC3)c2)cnc1N)c1c(Cl)ccc(F)c1Cl [crizotinib]
# Method in brief: as §1
# [4] = compound: C[C@H](C1=CC=C(C=C1)C(=O)NC2=C3C=CNC3=NC=C2)N
# Method in brief: as §1
# [5] = compound: C[C@H](Nc1ncnc2nc[nH]c12)c1cc2cccc(Cl)c2c(=O)n1-c1ccccc1 [duvelisib]
# Method in brief: as §1
# [6] = compound: Cc1cc(Nc2cc(CN3CCOCC3)c3nc(C)c(Cc4ccc(Cl)cc4F)n3n2)n[nH]1 [gandotinib]
# Method in brief: as §1
# [7] = compound: Cc1cc(Nc2cc(N3CCN(C)CC3)nc(Sc3ccc(NC(=O)C4CC4)cc3)n2)n[nH]1 [tozasertib]
# Method in brief: as §1
# [8] = compound: Cc1ccc(-n2nc(C(C)(C)C)cc2NC(=O)Nc2ccc(OCCN3CCOCC3)c3ccccc23)cc1 [doramapimod]
# Method in brief: as §1
# [9] = compound: Cc1ccc(NC(=O)c2ccc(CN3CC[C@H](N(C)C)C3)c(C(F)(F)F)c2)cc1Nc1nccc(-c2cncnc2)n1 [bafetinib]
# Method in brief: as §1
# [10] = compound: Cc1cccc(CC(=O)N2CCc3c2ccc(-c2cn(C)c4ncnc(N)c24)c3F)n1
# Method in brief: as §1
# [11] = compound: Cc1cn(-c2cc(NC(=O)c3ccc(C)c(Nc4nccc(-c5cccnc5)n4)c3)cc(C(F)(F)F)c2)cn1 [nilotinib]
# Method in brief: as §1
# [12] = compound: Cc1nc(Nc2n[nH]c3c2CN(C(=O)N[C@H](CN(C)C)c2ccccc2)C3(C)C)c2sccc2n1
# Method in brief: as §1
# [13] = compound: Cc1nc(Nc2ncc(C(=O)Nc3c(C)cccc3Cl)s2)cc(N2CCN(CCO)CC2)n1 [dasatinib]
# Method in brief: as §1
# [14] = compound: Cc1ncc(-c2ccnc(Nc3ccc(S(C)(=O)=O)cc3)n2)n1C(C)C
# Method in brief: as §1
# [15] = compound: Cn1cc(-c2ccc3c(c2)CCN3C(=O)Cc2cccc(C(F)(F)F)c2)c2c(N)ncnc21
# Method in brief: as §1
# [16] = compound: Cn1cc(CNCC2CCN(c3ncc(C(=O)NO)cn3)CC2)c2ccccc21 [quisinostat]
# Method in brief: as §1
# [17] = compound: Cn1cncc1[C@@](N)(c1ccc(Cl)cc1)c1ccc2c(c1)c(-c1cccc(Cl)c1)cc(=O)n2C [tipifarnib]
# Method in brief: as §1
# [18] = compound: NC(=O)Nc1cc(-c2cccc(F)c2)sc1C(=O)N[C@H]1CCCNC1
# Method in brief: as §1
# [19] = compound: NC(=O)c1cnc(N[C@@H]2CCCC[C@@H]2N)nc1Nc1cccc(-n2nccn2)c1
# Method in brief: as §1
# [20] = compound: NC1(c2ccc(-c3nc4ccn5c(=O)[nH]nc5c4cc3-c3ccccc3)cc2)CCC1
# Method in brief: as §1
Target,log2 fold change [1],log2 fold change [2],log2 fold change [3],log2 fold change [4],log2 fold change [5],log2 fold change [6],log2 fold change [7],log2 fold change [8],log2 fold change [9],log2 fold change [10],log2 fold change [11],log2 fold change [12],log2 fold change [13],log2 fold change [14],log2 fold change [15],log2 fold change [16],log2 fold change [17],log2 fold change [18],log2 fold change [19],log2 fold change [20]
ADD3 (UniProt Q9UEY8),inactive: 0.014,inactive: 0.034,inactive: 0.009,inactive: -0.02,inactive: -0.001,inactive: 0.028,inactive: -0.007,inactive: 0.011,inactive: -0.013,inactive: 0.018,inactive: -0.002,inactive: 0.003,inactive: 0.001,inactive: 0.004,inactive: -0.006,inactive: -0.002,inactive: -0.029,inactive: -0.009,inactive: -0.003,inactive: 0.01
ACTL6A (UniProt O96019),inactive: -0.008,inactive: -0.034,inactive: -0.037,inactive: -0.037,inactive: -0.006,inactive: 0.025,inactive: 0.015,inactive: 0.005,inactive: 0,inactive: 0.016,inactive: 0.001,inactive: -0.011,inactive: -0.026,inactive: 0.029,inactive: -0.006,inactive: -0.028,inactive: 0.017,inactive: 0.008,inactive: 0.007,inactive: 0.009
AGAP3 isoform 4 (UniProt Q96P47),inactive: -0.024,inactive: -0.066,inactive: -0.024,inactive: 0.053,inactive: -0.076,inactive: -0.088,inactive: 0.052,inactive: -0.002,inactive: -0.076,inactive: 0.007,inactive: 0.037,inactive: -0.007,inactive: -0.025,inactive: -0.088,inactive: 0.027,inactive: -0.032,inactive: 0.022,inactive: 0.032,inactive: 0.001,inactive: 0.005
ACTL8 (UniProt Q9H568),inactive: -0.008,inactive: 0.134,inactive: 0.066,inactive: -0.061,inactive: 0.082,inactive: -0.04,inactive: -0.005,inactive: -0.034,inactive: 0.022,inactive: 0.07,inactive: -0.108,inactive: -0.005,inactive: 0.042,inactive: -0.073,inactive: -0.054,inactive: -0.047,inactive: 0.085,inactive: 0.005,inactive: -0.056,inactive: 0.005
AIDA (UniProt Q96BJ3),inactive: -0.013,inactive: -0.026,inactive: -0.002,inactive: 0.028,inactive: 0.084,inactive: -0.044,inactive: 0.023,inactive: -0.005,inactive: -0.024,inactive: -0.006,inactive: 0.042,inactive: -0.081,inactive: -0.088,inactive: -0.017,inactive: -0.066,inactive: -0.005,inactive: -0.083,inactive: 0.001,inactive: 0.002,inactive: -0.017
AGPAT1 (UniProt Q99943),inactive: -0.122,inactive: 0.009,inactive: -0.029,inactive: -0.019,inactive: 0.009,inactive: -0.034,inactive: 0.041,inactive: 0.028,inactive: -0.057,inactive: 0.091,inactive: -0.021,inactive: -0.004,inactive: -0.069,inactive: 0.055,inactive: -0.062,inactive: 0.043,inactive: -0.058,inactive: -0.028,inactive: 0.028,inactive: -0.003
AFF1 isoform 2 (UniProt P51825),inactive: -0.055,inactive: -0.063,inactive: 0.005,active: -0.396,inactive: 0.067,inactive: 0.341,inactive: 0.066,inactive: 0.064,inactive: -0.04,active: 0.696,inactive: -0.069,inactive: 0.022,inactive: 0.059,inactive: 0.069,inactive: -0.043,inactive: -0.01,inactive: 0.028,inactive: -0.005,inactive: 0.194,inactive: 0.008
ADAMTS5 (UniProt Q9UNA0),inactive: -0.102,inactive: -0.015,inactive: -0.139,active: -0.843,inactive: -0.004,inactive: 0.332,inactive: 0.011,inactive: 0.04,inactive: -0.211,inactive: 0.33,inactive: 0.003,inactive: -0.062,inactive: -0.01,inactive: -0.011,inactive: 0.014,inactive: -0.222,inactive: -0.041,inactive: 0.016,inactive: 0.031,inactive: -0.083
ACSS1 (UniProt Q9NUB1),inactive: -0.082,inactive: 0.025,inactive: -0.008,inactive: 0.019,inactive: -0.17,inactive: -0.046,inactive: -0.049,inactive: 0.044,inactive: -0.058,inactive: 0.045,inactive: 0.086,inactive: 0.18,inactive: 0.055,inactive: 0.166,inactive: -0.113,inactive: -0.123,inactive: 0.111,inactive: 0.072,inactive: 0.045,
ADAM10 (UniProt O14672),inactive: -0.033,inactive: -0.012,inactive: 0.014,inactive: -0.145,inactive: 0.043,inactive: 0.028,inactive: -0.003,inactive: 0.024,inactive: 0.038,inactive: 0.005,inactive: 0.051,inactive: -0.046,inactive: 0,inactive: 0.053,inactive: -0.004,inactive: -0.055,inactive: 0.017,inactive: 0.002,inactive: 0.016,inactive: 0.022
ACTBL2 (UniProt Q562R1),inactive: 0.163,inactive: 0.102,inactive: 0.091,inactive: 0.408,inactive: -0.035,inactive: -0.166,inactive: -0.201,inactive: -0.15,inactive: 0.37,active: -0.547,inactive: 0.32,inactive: -0.036,inactive: -0.075,inactive: 0.139,inactive: -0.067,inactive: 0.184,inactive: 0.087,inactive: -0.03,inactive: -0.008,inactive: 0.006
AIP (UniProt O00170),inactive: -0.004,inactive: -0.026,inactive: 0.021,active: 0.41,inactive: -0.031,inactive: -0.019,inactive: -0.012,inactive: -0.022,inactive: 0.055,inactive: -0.043,inactive: 0.024,inactive: -0.001,inactive: 0.018,inactive: 0.028,inactive: 0.008,inactive: 0.007,inactive: 0.027,inactive: -0.011,inactive: -0.016,inactive: 0.024
ACTR1A (UniProt P61163),inactive: -0.001,inactive: -0.024,inactive: -0.01,inactive: -0.036,inactive: 0.014,inactive: 0.042,inactive: -0.027,inactive: -0.018,inactive: 0.008,inactive: 0.025,inactive: 0,inactive: 0.008,inactive: 0.003,inactive: 0.001,inactive: -0.01,inactive: 0.056,inactive: -0.014,inactive: -0.004,inactive: -0.016,inactive: -0.049
AKR1A1 (UniProt P14550),inactive: -0.011,inactive: -0.003,inactive: -0.003,inactive: 0.082,inactive: -0.014,inactive: -0.043,inactive: 0.012,inactive: -0.001,inactive: -0.017,inactive: -0.033,inactive: 0.013,inactive: -0.029,inactive: -0.009,inactive: 0.019,inactive: -0.01,inactive: -0.017,inactive: 0.021,inactive: 0.003,inactive: 0.008,inactive: 0
ACTN1 isoform 3 (UniProt P12814),inactive: -0.01,inactive: -0.009,inactive: 0.014,inactive: 0.026,inactive: -0.023,inactive: 0.019,inactive: -0.01,inactive: 0.004,inactive: 0.04,inactive: -0.034,inactive: 0.019,inactive: -0.006,inactive: 0.04,inactive: 0.009,inactive: -0.02,inactive: 0.01,inactive: 0.003,inactive: -0.01,inactive: -0.009,inactive: 0.009
AKR1B1 (UniProt P15121),inactive: -0.009,inactive: 0.006,inactive: 0.065,inactive: -0.102,inactive: -0.006,inactive: 0.037,inactive: -0.014,inactive: -0.022,inactive: 0.011,inactive: 0.006,inactive: 0.031,inactive: -0.022,inactive: 0.086,inactive: 0.028,inactive: -0.136,inactive: 0.016,inactive: -0.036,inactive: 0.03,inactive: -0.009,inactive: 0.038

# Quoted from the entries so far for reference:
Target,log2 fold change [1],log2 fold change [2],log2 fold change [3],log2 fold change [4],log2 fold change [5],log2 fold change [6],log2 fold change [7],log2 fold change [8],log2 fold change [9],log2 fold change [10],log2 fold change [11],log2 fold change [12],log2 fold change [13],log2 fold change [14],log2 fold change [15],log2 fold change [16],log2 fold change [17],log2 fold change [18],log2 fold change [19],log2 fold change [20]
AIDA (UniProt Q96BJ3),inactive: -0.013,inactive: -0.026,inactive: -0.002,inactive: 0.028,inactive: 0.084,inactive: -0.044,inactive: 0.023,inactive: -0.005,inactive: -0.024,inactive: -0.006,inactive: 0.042,inactive: -0.081,inactive: -0.088,inactive: -0.017,inactive: -0.066,inactive: -0.005,inactive: -0.083,inactive: 0.001,inactive: 0.002,inactive: -0.017
AGPAT1 (UniProt Q99943),inactive: -0.122,inactive: 0.009,inactive: -0.029,inactive: -0.019,inactive: 0.009,inactive: -0.034,inactive: 0.041,inactive: 0.028,inactive: -0.057,inactive: 0.091,inactive: -0.021,inactive: -0.004,inactive: -0.069,inactive: 0.055,inactive: -0.062,inactive: 0.043,inactive: -0.058,inactive: -0.028,inactive: 0.028,inactive: -0.003
